According to publication PMC3765158, “Structure Determination and Biochemical Characterization of a Putative HNH Endonuclease from Geobacter metallireducens GS-15” (PLoS ONE, 2013):

Tests used:
Assay in all cases: EMSA
[1] = target: T1, Gmet_0936 (Gme HNHE), 6xHis (Geobacter metallireducens GS-15) (UniProt Q39X46); conditions: no divalent cations, 2-3 complexes at 20-fold molar excess of protein; EMSA: room temperature, 20 min, binding buffer without divalent cations (composition, salt and pH not given), 10% polyacrylamide gel; 1x = 0.5 ug protein, 1/2x to 8x; recombinant protein; residues 1-104; protein details: C-terminal LEH6; label: 3'-FAM on strand 2
T1 sequence (looked up): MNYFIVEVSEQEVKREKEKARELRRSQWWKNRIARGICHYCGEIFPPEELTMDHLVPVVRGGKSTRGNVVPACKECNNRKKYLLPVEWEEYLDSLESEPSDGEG

[2] = target: T2, Gmet_0936 N77H (H6) (Geobacter metallireducens GS-15) (UniProt Q39X46); conditions: no divalent cations, 2-3 complexes at 20-fold molar excess of protein; EMSA: room temperature, 20 min, binding buffer without divalent cations (composition, salt and pH not given), 10% polyacrylamide gel; 1x = 0.5 ug protein, 1/2x to 8x; recombinant protein; residues 1-104; protein details: C-terminal 6xHis; label: 3'-FAM on strand 2
T2 sequence (looked up): T1 sequence (looked up) with N77H

[3] = test system: N.Bsu (Bsu HNH nicking endonuclease) (Bacillus subtilis); conditions: no divalent cations, high molecular weight complex; EMSA: room temperature, 20 min, binding buffer without divalent cations (composition, salt and pH not given), 10% polyacrylamide gel; 1x = 0.5 ug protein, 1/2x to 8x; recombinant protein; label: 3'-FAM on strand 2

“ACGATAGTTACCGGATAAGGCGCAGCGG (double strand) [ACCGG duplex (oligo 1/oligo 2)]”: binds more weakly [1]; binds more weakly [2]; binds [3].

Positions count from the first letter of the chain named. For part of these data: Weaker means in comparison with the reference protein, sequence or condition of that experiment. For part of these data: Protein sequences can lack the tags named with them. For part of these data: For at least one entry, the source does not settle the construct or the ends of the probe.
